Values of other authors as cited in patent publication US10676476B2, “Small-molecule HSP90 inhibitors” (Sloan-Kettering Institute for Cancer Research, priority 2005, dated 2020).
For at least one compound, name, drawing or mass did not settle the structure.

Settings: cited from earlier work

SMILES: C=CCNC1=C2C[C@@H](C)C[C@H](OC)[C@H](O)[C@@H](C)/C=C(\C)[C@H](OC(N)=O)[C@@H](OC)/C=C\C=C(/C)C(=O)NC(=CC1=O)C2=O [Example 17AAG, 17-allyl-amino-desmethoxy-geldanamycin]
- Blood brain barrier penetration: do not penetrate the blood brain barrier
